From publication PMC8092218, “NirA Is an Alternative Nitrite Reductase from Pseudomonas aeruginosa with Potential as an Antivirulence Target” (mBio, 2021) come the findings set out here.

Results are given in words; binding and its absence hold for the method and conditions named.

The assay deals with PA4130 (NirA), ammonia:ferredoxin nitrite reductase from Pseudomonas aeruginosa (Pseudomonas aeruginosa PAO1) (UniProt Q9HWQ1). Description: SEC; 16/600 Superdex 200 pg column, eluted with 50 mM Tris, 150 mM NaCl, pH 7.5; sample after IMAC and chitin column; both purified. (In general: In gel filtration, larger molecules generally elute earlier.)

B1: PA4130 (NirA), ammonia:ferredoxin nitrite reductase from Pseudomonas aeruginosa (enzyme, UniProt Q9HWQ1 1-557)
chain: MYQYDEYDQALVSERVAQFRDQIARRLDGELSEEEFLPLRLQNGLYLQKHAYMLRVAIPYGTLSAPQLRALAHVARHYDRGYGHFTTRQNIQFNWIELEQVGDILEHLAGAQMHAIQTSGNCVRNITTEAFAGVAADEWTDPRPLAEILRQWSTVNPEFLFLPRKFKIALSSAVEDRAAVQMHDIGLYLYRHPDAGELRLRVLVGGGLGRTPMLGQVIRDDLPWQHLLSYVEAILRVYNRYGRRDNKYKARIKILVKALGIEAFAREVEEEWQHLRDGPAQLTAEECQRVAERFVLPRYLPPADGELAYGSARAADPAFARWASRNVQAHKVPGYASVVLSTKPGASAPPGDVTAEQMERVADWAERYGFGEIRVAHEQNLVLPDVRLENLHALWREACAAGLGTPNQGLLSDIIACPGGDYCALANAKSIPIAQGIQQRFEDLDHLHDIGELSLNISGCMNACGHHHIGNIGILGVDKSGSEWYQVTLGGAQGKDSALGKVIGPSFSAAEVPAVIERIVETFTDLRVGPERFIDTFNRVGLEPFKARVYARMEEPA
On to B1, for which the binding result is on record as “no binding”.
